These results are taken from paper PMC10820479, “An Improved In Vitro Blood-Brain Barrier Model for the Evaluation of Drug Permeability Using Transwell with Shear Stress” (Pharmaceutics, 2023).

Counter-ions that a name gives are not always drawn.

One data set is described as follows: in vitro. The note with it: human. As for the experimental part: (§1) The culture inserts (Costar®, Washington, DC, USA, 6.5 mm diameter) of polycarbonate (PC) and polyester (PET) membrane were procured from Corning Inc. (Corning, NY, USA). […] After washing twice with PBS, the cells were seeded at a density of 1 × 10^5 hCMEC/D3 cells/well in the apical chamber and 3 × 10^4 U87MG cells/well on the basolateral side of the insert. The cultivation method was modified from that described in the literature. Briefly, the insert was inverted, and U87MG cells were initially seeded. The insert was flipped 3–4 h after seeding the U87MG cells. Subsequently, hCMEC/D3 cells were seeded 1 day later.
(§2) To prevent nonspecific binding, all compounds were pre-incubated for 30 min prior to the permeability study. The samples were collected at 0 min from the donor and at 30, 60, and 90 min from the acceptor and immediately replaced with a new transport buffer. Incubation was carried out in a humidified 5% CO2 environment at 37 °C with shaking at 100 rpm.
(§3) After culturing the cells in culture inserts, as described in Section 2.3, they were transferred to the AS prepared on day 3, and cultivation was carried out with orbital shaking at 150 rpm until day 17 (Figure 1b). The cultivated AS BBB model was employed to investigate the effects of the AS size, as well as the influence of FBS and ITS. […]
(§4) The optimized AS BBB model was evaluated as follows.

Data set [1] relates to in vitro AS BBB model (hCMEC/D3 co-cultured with U87MG). As to the kind of experiment: in vitro. Here is the method: as §1, §2, §3, §4

Regarding `COc1cc2c(cc1OC)C(=O)C(CC1CCN(Cc3ccccc3)CC1)C2` (centres unmarked) [Donepezil, donepezil HCl], in “in vitro”, the Papp (as a rule, a coefficient for how fast a substance crosses the barrier) was found to be 41.6 ± 7 ×10⁻⁶ cm/s. Also, in data set [1], the “permeability (in words)” value is “high permeability”.
